Experimental data published in the supplement of paper PMC5949888.
Most values lie at the floor of the assay. Slopes are relative: functional sequences can read slightly below zero.

What follows are substances tested on Saccharomyces cerevisiae PS128 hsf1 delta, HSF1(1-493) fusion (assay: growth estimate (transactivation domain function in HSF1 fusion, heat-shock survival) (a.u. (slope of normalised read count over time)); higher = stronger growth at 37°C, i.e. more transactivation activity). Settings: library: random library.

Substance	growth estimate
CLLSESGTWDARPLKVHGSL	< -0.25
REQEWRHRARTREVRKRAAA	< -0.25
MTGETMWFDLFMW	< -0.25
LCRGDAPAGRTLRSRLSGRE	< -0.25
RTELVSSQQFITLGHLAFLH	< -0.25
GLSQRGAGEVRICQRISHMV	< -0.25
TGMKGPRATPTHAPNSLRTR	< -0.25
KNTATSRAQSRVADAKVDGH	< -0.25
KIYLIVSRISH	< -0.25
SQA	< -0.25
ADIADRDPKAVNAVECLIHV	< -0.25
SINREFKHMLDERMYWGVLE	< -0.25
SRTLRMRWLGESSFQISLSR	< -0.25
EGCLAQHI	< -0.25
RDAETALATKLSCAVTSTSV	< -0.25
SIKTTKTRLRKSP	< -0.25
LSYSALCCGSSFRPFCPEMC	< -0.25
RRFKTHDSGLS	< -0.25
DLR	< -0.25
ILHYEIGSRVTPSSGLLVFC	< -0.25
LWPTEIRVQ	< -0.25
ICDV	< -0.25
GSV	< -0.25
ATCSYGGLAVTKDENYEGF	< -0.25
RGEPYTGIPQSFGRAAWSFA	< -0.25
PTYQRYSNIQRRFYRARSSL	< -0.25

Substance	growth estimate
DGRGQLMRFWDGTCSNLYSI	< -0.25
THYGTG	< -0.25
TPAPDCKFVCCGLYVHETGI	< -0.25
GQDAVKTRVVRGWSPRR	< -0.25
RRRFKTRSAVSQETQEVPTK	< -0.25
LELNNRAGLWQCGTKSHDAH	< -0.25
LHQAIG	< -0.25
DAMEGQIGFRG	< -0.25
NEWLRKPAALLGVRHKKDGV	< -0.25
LIVAAI	< -0.25
LARTGALNADVWNRRRGPRR	< -0.25
ERTTALGVPRSTQEMLRPIR	< -0.25
LNYRQNLSAIREERCQFLTL	< -0.25
CAEVWFTEVTRETKLKHTQA	< -0.25
TSRRILVPRLCQGRNGMAKG	< -0.25
TWSWTPVAT	< -0.25
RCNQDRVIPQRLIRWEAETR	< -0.25
TWGRYVNM	< -0.25
QRSPSTSKAKPGKGEGSVDS	-0.246
DTMDVVRHQLTPRLGLQLVV	< -0.25
IDKGGGTW	< -0.25
WWWKVLADYFGVAGTTDTKG	< -0.25
LLPYPRSAACKVMN	< -0.25
VLLIARSSFQKGVSRP	< -0.25
GKPRQSDLGDMS	< -0.25
LRVWEFAPTEVTQVYV	< -0.25

Substance	growth estimate
CKKSKIDIRSICI	< -0.25
SSEIMERSTSRL	< -0.25
ATVRSRFKPGYPVRPCS	< -0.25
RHYSRTRVKPLPDRISLISQ	< -0.25
LRNLGSC	< -0.25
APRLICSHVGLCVA	< -0.25
LTVQNGSQAVLRGVSVTPAV	< -0.25
QPVQSLGPLVQSCLQMELRM	< -0.25
GVTQRARNLMQ	< -0.25
LFTKLGGAWAPLEHSYYALK	< -0.25
WAL	< -0.25
GSAKRLLHKLIQVDNLVPGP	-0.241
TDEISSQNQLMRRS	< -0.25
QRVGHTKFWPKFS	< -0.25
PTSVMSRDIAEAAAALRTRI	< -0.25
LRK	< -0.25
YGMPFKSPVSS	< -0.25
EPTSQGKGARDFRLKDQLVS	< -0.25
TGYVAEESGLVTTMRGETRG	-0.192
RYSFADGYSHWFVGETITHT	-0.234
SRPFHEAS	< -0.25
VVI	< -0.25
GTRSRRAERSGTLMVSLLSA	< -0.25
GVSPQDYLGRTCFTKPSFGP	< -0.25
EEFGVQEQGVELRSSKSSTG	< -0.25
SSFNLSHRVVKKLRRIDISR	< -0.25

Some values from above:
Under growth estimate, LCRGDAPAGRTLRSRLSGRE is entered as < -0.25
Under growth estimate, SSEIMERSTSRL is entered as < -0.25
Under growth estimate, WWWKVLADYFGVAGTTDTKG is entered as < -0.25
Under growth estimate, TGMKGPRATPTHAPNSLRTR is entered as < -0.25
